Some results were stated once for a whole list of compounds, not compound by compound. At least one structure is not confirmed: it was looked up by name or label, or the drawing left a doubt.
What was measured:
HCVcc JFH-1 [1] = assay: HCV RNA levels by RT-qPCR in HCVcc-infected non-dividing DMSO-Huh7 cells; format: cell-based, Hepatitis C virus; details: DMSO-Huh7, HCV 0.05 FFU/cell; compounds added day 2 and 4 p.i., read day 6; 2.5 μM CsA, 100 U/ml IFN-α, IFN-β, IFN-γ, 10 μM MA, 18.5 μM NM107 (FIG. 1B)
HCVcc JFH-1 [2] = assay: High-throughput HCVcc NS3 FRET assay in non-dividing DMSO-Huh7 cells; format: cell-based, Hepatitis C virus; details: DMSO-Huh7, HCV 0.05 FFU/cell; compounds added day 2 and 4 p.i., read day 6; 2.5 μM CsA, 100 U/ml IFN-α, IFN-β, IFN-γ, 10 μM MA, 18.5 μM NM107 (FIG. 1B)

Structure (SMILES): COc1c(C)c2c(c(O)c1C/C=C(\C)CCC(=O)O)C(=O)OC2 [MA, Mycophenolic acid]
- inhibition, RT-qPCR (HCV RNA levels vs mock-treated) (HCVcc JFH-1 [1]): 74-93%
- inhibition, NS3 FRET assay (NS3 protease activity vs mock-treated) (HCVcc JFH-1 [2]): 74-93%

Structure (SMILES): C[C@@]1(O)[C@H](O)[C@@H](CO)O[C@H]1n1ccc(N)nc1=O [NM107]
- inhibition, RT-qPCR (HCV RNA levels vs mock-treated) (HCVcc JFH-1 [1]): 74-93%
- inhibition, NS3 FRET assay (NS3 protease activity vs mock-treated) (HCVcc JFH-1 [2]): 74-93%

— patent US20100099079A1, “Non-dividing cell-based assay for high throughput antiviral compound screening” (priority 2008, published 2010)
